Measured values: the M2OR odorant receptor database
Only a part is listed here, and it is no random draw. The calls were merged from several studies; some rest on single wells. The list shows a part of the results. The list shows a part of the results.

How the values were obtained:
Settings in all cases: stereoisomer not certain
[1] = tested on: T1, O52R1
T1 sequence (whole entry): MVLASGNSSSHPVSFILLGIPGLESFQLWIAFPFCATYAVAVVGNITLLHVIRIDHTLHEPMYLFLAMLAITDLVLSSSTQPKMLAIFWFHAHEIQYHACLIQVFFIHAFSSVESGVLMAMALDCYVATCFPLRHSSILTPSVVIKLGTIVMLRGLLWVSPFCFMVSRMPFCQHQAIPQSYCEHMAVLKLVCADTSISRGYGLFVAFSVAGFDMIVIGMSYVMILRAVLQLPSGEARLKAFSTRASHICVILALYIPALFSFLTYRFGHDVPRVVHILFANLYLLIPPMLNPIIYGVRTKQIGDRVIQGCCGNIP
Outline: (§1)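 Values were gathered from published papers (main text and supplementary material), with extra details requested from the original authors when needed, and checked for typos and inconsistencies. Each receptor–molecule pair is called responsive (active) if the original authors judged the measured signal statistically different from baseline, and non-responsive (inactive) otherwise. Assay methods varied by source, often transient mammalian cell-line luciferase assays. Recorded details include cell line, G-protein, co-transfected protein and tags.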

[2] = tested on: T2, O52W1
T2 sequence (whole entry): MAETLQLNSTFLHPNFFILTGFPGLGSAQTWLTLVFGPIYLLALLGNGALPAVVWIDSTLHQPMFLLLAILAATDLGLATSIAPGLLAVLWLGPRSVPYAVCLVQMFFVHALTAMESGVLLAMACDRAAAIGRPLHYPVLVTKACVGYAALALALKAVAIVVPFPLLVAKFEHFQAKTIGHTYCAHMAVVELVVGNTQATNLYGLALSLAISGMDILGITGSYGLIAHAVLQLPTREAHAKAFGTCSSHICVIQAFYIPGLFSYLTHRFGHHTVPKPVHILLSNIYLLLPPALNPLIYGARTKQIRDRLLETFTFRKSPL
Outline: as §1

[3] = tested on: T3, O56A3
T3 sequence (whole entry): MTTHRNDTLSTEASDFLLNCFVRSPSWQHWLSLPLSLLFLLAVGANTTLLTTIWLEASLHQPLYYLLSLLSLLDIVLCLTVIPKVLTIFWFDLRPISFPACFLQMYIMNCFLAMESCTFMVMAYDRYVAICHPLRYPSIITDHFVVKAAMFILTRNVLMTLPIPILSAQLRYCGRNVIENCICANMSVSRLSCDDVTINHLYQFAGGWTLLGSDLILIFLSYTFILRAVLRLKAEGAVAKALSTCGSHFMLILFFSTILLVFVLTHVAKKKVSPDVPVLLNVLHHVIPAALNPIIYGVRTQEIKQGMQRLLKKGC
Outline: as §1

[4] = tested on: T4, O56B1
T4 sequence (whole entry): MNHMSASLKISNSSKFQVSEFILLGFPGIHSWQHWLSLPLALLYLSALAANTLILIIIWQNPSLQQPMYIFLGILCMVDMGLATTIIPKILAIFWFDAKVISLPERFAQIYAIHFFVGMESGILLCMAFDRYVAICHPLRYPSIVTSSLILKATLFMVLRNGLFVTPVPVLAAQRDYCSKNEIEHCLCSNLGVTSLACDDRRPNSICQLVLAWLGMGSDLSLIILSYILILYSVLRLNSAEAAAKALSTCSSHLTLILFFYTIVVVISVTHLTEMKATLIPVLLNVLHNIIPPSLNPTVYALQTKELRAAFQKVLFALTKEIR
Outline: as §1

[5] = tested on: T5, O56B4
T5 sequence (whole entry): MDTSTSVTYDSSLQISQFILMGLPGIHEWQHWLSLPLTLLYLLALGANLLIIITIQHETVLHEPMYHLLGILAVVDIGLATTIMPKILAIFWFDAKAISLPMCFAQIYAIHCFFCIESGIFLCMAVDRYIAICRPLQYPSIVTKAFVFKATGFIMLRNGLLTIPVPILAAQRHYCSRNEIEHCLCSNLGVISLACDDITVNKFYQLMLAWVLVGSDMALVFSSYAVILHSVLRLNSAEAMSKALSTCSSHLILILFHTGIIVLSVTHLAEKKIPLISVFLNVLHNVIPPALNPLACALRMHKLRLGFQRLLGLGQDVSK
Outline: as §1

[6] = tested on: T6, O5AC2
T6 sequence (whole entry): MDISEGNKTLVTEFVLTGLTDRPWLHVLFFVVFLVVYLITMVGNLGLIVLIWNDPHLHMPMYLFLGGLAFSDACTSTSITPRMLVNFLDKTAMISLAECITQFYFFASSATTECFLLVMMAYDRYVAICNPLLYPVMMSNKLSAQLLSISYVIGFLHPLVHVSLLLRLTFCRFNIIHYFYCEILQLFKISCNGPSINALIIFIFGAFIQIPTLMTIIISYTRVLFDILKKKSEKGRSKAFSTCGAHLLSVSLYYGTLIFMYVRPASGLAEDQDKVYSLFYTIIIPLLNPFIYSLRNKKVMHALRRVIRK
Outline: as §1

[7] = tested on: T7, O5AK2
T7 sequence (whole entry): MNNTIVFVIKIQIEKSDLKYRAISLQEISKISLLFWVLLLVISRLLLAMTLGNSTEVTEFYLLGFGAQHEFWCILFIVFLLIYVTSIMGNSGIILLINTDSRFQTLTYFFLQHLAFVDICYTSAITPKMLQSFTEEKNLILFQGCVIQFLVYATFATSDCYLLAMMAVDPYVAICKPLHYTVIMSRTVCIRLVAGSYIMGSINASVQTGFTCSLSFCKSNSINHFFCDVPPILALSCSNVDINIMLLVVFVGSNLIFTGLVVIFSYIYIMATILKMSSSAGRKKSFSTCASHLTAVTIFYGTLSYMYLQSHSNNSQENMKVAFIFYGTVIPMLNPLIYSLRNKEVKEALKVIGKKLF
Outline: as §1

[8] = tested on: T8, O5AK3
T8 sequence (whole entry): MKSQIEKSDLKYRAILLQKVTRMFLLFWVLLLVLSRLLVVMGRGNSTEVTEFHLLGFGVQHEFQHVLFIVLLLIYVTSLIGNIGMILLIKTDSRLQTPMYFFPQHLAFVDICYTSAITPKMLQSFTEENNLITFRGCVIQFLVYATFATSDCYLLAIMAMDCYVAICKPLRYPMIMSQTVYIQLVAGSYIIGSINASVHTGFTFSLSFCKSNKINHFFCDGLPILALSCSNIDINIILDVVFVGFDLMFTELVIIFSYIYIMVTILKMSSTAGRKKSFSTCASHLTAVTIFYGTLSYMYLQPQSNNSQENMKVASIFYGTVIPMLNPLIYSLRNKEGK
Outline: as §1

[9] = tested on: T9, O5AL1
T9 sequence (whole entry): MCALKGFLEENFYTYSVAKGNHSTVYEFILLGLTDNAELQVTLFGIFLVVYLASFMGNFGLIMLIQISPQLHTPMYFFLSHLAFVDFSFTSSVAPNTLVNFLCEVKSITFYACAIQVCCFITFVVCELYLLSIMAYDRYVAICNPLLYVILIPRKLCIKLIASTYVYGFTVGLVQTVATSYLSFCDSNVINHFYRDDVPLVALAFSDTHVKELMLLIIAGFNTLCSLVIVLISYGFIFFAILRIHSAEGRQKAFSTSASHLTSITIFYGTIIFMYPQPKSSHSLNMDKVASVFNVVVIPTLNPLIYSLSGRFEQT
Outline: as §1

[10] = tested on: T10, O5AP2
T10 sequence (whole entry): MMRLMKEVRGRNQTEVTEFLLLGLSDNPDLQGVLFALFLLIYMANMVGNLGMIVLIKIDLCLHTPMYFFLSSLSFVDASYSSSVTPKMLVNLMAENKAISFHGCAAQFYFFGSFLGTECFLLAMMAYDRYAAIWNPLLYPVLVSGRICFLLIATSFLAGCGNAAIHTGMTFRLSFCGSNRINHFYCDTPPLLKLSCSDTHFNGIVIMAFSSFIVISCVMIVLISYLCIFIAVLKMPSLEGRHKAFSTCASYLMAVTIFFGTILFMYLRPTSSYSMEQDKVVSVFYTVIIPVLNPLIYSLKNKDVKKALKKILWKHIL
Outline: as §1

[11] = tested on: T11, O5AU1
T11 sequence (whole entry): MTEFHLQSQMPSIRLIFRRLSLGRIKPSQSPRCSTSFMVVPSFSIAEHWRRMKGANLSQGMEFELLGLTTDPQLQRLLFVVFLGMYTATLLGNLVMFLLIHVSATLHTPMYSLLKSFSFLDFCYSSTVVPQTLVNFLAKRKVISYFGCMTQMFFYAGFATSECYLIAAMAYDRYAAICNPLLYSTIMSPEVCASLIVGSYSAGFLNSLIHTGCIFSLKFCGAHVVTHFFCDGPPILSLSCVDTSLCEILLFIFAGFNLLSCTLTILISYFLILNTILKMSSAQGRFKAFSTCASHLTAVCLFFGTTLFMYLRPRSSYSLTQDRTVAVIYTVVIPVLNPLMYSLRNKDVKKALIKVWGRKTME
Outline: as §1

[12] = tested on: T12, O5H14
T12 sequence (whole entry): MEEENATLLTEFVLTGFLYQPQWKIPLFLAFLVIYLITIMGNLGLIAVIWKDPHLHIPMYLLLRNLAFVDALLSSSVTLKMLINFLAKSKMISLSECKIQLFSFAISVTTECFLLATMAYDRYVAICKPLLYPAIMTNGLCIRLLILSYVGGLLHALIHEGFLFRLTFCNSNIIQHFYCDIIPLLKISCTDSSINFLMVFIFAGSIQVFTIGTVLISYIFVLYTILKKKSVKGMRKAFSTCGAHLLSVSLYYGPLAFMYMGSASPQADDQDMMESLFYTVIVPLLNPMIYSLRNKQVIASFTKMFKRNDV
Outline: as §1

[13] = tested on: T13, O6C68
T13 sequence (whole entry): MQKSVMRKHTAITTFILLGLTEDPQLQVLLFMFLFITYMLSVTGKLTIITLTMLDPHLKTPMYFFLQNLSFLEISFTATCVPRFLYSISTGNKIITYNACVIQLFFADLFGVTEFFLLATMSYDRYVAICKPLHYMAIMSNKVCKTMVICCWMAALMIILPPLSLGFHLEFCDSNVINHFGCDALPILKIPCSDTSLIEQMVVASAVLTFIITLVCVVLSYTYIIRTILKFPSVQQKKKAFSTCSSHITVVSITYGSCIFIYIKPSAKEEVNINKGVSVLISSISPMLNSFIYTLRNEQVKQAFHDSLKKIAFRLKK
Outline: as §1

[14] = tested on: T14, O6C70
T14 sequence (whole entry): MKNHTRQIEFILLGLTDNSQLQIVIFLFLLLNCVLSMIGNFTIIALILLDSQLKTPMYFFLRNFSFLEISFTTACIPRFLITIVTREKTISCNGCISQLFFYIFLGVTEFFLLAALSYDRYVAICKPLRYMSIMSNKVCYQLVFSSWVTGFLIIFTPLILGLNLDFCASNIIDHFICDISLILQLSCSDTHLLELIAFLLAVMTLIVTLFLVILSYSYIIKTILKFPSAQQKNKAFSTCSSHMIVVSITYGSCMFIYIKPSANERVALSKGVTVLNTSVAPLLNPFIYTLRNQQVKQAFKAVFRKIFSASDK
Outline: as §1

[15] = tested on: T15, O7E24
T15 sequence (whole entry): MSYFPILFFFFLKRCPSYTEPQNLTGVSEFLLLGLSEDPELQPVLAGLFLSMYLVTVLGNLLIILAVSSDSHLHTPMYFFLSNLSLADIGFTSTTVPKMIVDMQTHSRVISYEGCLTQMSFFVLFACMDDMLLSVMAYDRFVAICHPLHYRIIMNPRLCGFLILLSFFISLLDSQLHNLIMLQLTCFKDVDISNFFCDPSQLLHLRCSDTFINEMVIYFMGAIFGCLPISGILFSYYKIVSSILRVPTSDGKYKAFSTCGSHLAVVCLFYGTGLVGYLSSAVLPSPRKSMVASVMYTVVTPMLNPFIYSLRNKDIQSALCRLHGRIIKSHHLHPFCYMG
Outline: as §1

[16] = biological target: T16, OR10A3 (Homo sapiens) (UniProt P58181)
T16 sequence (whole entry): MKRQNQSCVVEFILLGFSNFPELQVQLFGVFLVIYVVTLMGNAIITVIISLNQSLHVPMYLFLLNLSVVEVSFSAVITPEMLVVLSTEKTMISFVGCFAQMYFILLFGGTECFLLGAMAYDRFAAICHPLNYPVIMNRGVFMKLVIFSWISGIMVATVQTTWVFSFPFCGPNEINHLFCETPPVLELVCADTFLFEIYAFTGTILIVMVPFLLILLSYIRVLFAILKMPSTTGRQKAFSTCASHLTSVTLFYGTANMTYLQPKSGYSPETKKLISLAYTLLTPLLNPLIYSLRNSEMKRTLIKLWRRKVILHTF
Outline: as §1

[17] = tested on: T17, O5AN1
T17 sequence (whole entry): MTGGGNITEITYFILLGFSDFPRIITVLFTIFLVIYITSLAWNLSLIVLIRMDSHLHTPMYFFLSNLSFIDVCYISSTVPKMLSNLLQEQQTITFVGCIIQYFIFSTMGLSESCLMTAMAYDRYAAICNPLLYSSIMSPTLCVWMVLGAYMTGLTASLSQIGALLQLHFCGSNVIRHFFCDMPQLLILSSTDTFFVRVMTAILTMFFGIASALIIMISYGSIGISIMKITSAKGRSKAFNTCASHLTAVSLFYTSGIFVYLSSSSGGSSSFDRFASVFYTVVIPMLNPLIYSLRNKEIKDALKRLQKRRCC
Outline: as §1

Measured: odorant receptor agonist call

COC(=O)c1ccccc1O
not listed: [17]
inactive: all other assays above

COC(=O)c1ccccc1
not listed: [1] | [2] | [13] | [17]
inactive: all other assays above

O=C1CCCCC1
not listed: [1] | [2] | [13]
inactive: all other assays above

CC(=O)OC(C)(C)C1CC=C(C)CC1 (centres undefined)
not listed: [17]
inactive: all other assays above
